Measurements reported in PubChem BioAssay AID504804 (Drosophila RNAi Screening Center, 2011).
The deposit covers about 19,000 reagents; shown is a random part of those with a known target gene and a result. In the full data, 47 (0.25%) were called active. 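Signals are raw, not normalised; exact z-scores behind calls not deposited; actives needed confirmation, so some wells reaching 2 SD are inactive.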 Names joined by + are all predicted targets of the reagent. No sequences are given here.

- Screen: 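dsRNAs that improve Kc cell survival under doxorubicin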 (primary screen)
- Cells: Drosophila Kc cells
- Reagents: long dsRNA against Drosophila genes, 0.5 µg dsRNA per well
- Timing: 96 h (48 h knock-down, then 48 h drug)
- Conditions: doxorubicin 5 µg/ml for 48 h, added 48 h after dsRNA
- Read-out: 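Luminescent ATP counts per replicate, not normalised, reflecting viable cells after 48 h dsRNA knock-down followed by 48 h of 5 µg/ml doxorubicin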
- Scale: raw ATP luminescence: higher = more viable cells, protection from doxorubicin
- Hit rule: 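Active when both duplicate wells lie at least 2 SD above the plate mean and protection is confirmed by rescreening and independent dsRNAs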

What did the screen give for TfIIFalpha (Transcription factor IIFalpha) [DRSC12608]?
raw ATP luminescence, replicate 1: 28310; raw ATP luminescence, replicate 2: 25677; Call: inactive

For pr (purple) [DRSC03596], what does the deposit list?
raw ATP luminescence, replicate 1: 1.26e5; raw ATP luminescence, replicate 2: 85637; Call: inactive

For nub (nubbin) [DRSC01260], what does the deposit list?
raw ATP luminescence, replicate 1: 2.90e5; raw ATP luminescence, replicate 2: 2.28e5; Call: inactive

With nub (nubbin) [DRSC02498], what does the deposit list?
raw ATP luminescence, replicate 1: 64747; raw ATP luminescence, replicate 2: 74720; Call: inactive

How did the screen score nub (nubbin) [DRSC02499]?
raw ATP luminescence, replicate 1: 55877; raw ATP luminescence, replicate 2: 57637; Call: inactive

With nub (nubbin) [DRSC03583], how do the results read?
raw ATP luminescence, replicate 1: 62557; raw ATP luminescence, replicate 2: 73873; Call: inactive

What did the screen give for GstO1 (Glutathione S transferase O1) [DRSC10688]?
raw ATP luminescence, replicate 1: 75183; raw ATP luminescence, replicate 2: 85343; Call: inactive

Which result is listed for Nup107 (Nucleoporin 107kD) [DRSC01999]?
raw ATP luminescence, replicate 1: 21507; raw ATP luminescence, replicate 2: 29607; Call: inactive

Which result is listed for CG14421 [DRSC17918]?
raw ATP luminescence, replicate 1: 57870; raw ATP luminescence, replicate 2: 51820; Call: inactive

Which result is listed for Cnx14D (Calnexin 14D) [DRSC20214]?
raw ATP luminescence, replicate 1: 2.60e5; raw ATP luminescence, replicate 2: 2.22e5; Call: inactive

Which result is listed for CG11980 [DRSC14456]?
raw ATP luminescence, replicate 1: 90003; raw ATP luminescence, replicate 2: 29937; Call: inactive

For CG14658 [DRSC12244], how do the results read?
raw ATP luminescence, replicate 1: 70067; raw ATP luminescence, replicate 2: 66510; Call: inactive

With CG13133 [DRSC02230], what does the deposit list?
raw ATP luminescence, replicate 1: 49803; raw ATP luminescence, replicate 2: 74637; Call: inactive

With tsl (torso-like) [DRSC17090], what does the deposit list?
raw ATP luminescence, replicate 1: 47910; raw ATP luminescence, replicate 2: 57240; Call: inactive

With Rcd5 (Reduction in Cnn dots 5) [DRSC08180], what was measured?
raw ATP luminescence, replicate 1: 52903; raw ATP luminescence, replicate 2: 35443; Call: inactive

With Tg (Transglutaminase) [DRSC03047], how do the results read?
raw ATP luminescence, replicate 1: 37037; raw ATP luminescence, replicate 2: 52087; Call: inactive

How did the screen score CG16956 [DRSC02544]?
raw ATP luminescence, replicate 1: 55073; raw ATP luminescence, replicate 2: 65147; Call: inactive

What is on record for Cad86C (Cadherin 86C) [DRSC15587]?
raw ATP luminescence, replicate 1: 64620; raw ATP luminescence, replicate 2: 51347; Call: inactive

How did the screen score Cad86C (Cadherin 86C) [DRSC15611]?
raw ATP luminescence, replicate 1: 60043; raw ATP luminescence, replicate 2: 50860; Call: inactive

What is on record for Ugt307A1 (UDP-glycosyltransferase family 307 member A1) [DRSC02138]?
raw ATP luminescence, replicate 1: 23073; raw ATP luminescence, replicate 2: 27777; Call: inactive

What did the screen give for Srg2 + CG42826 [DRSC10681]?
raw ATP luminescence, replicate 1: 41073; raw ATP luminescence, replicate 2: 36480; Call: inactive

With Srg2 + CG42826 [DRSC10682], what does the deposit list?
raw ATP luminescence, replicate 1: 69370; raw ATP luminescence, replicate 2: 56280; Call: inactive

How did the screen score CG33286 [DRSC11691]?
raw ATP luminescence, replicate 1: 81227; raw ATP luminescence, replicate 2: 63420; Call: inactive

With to (takeout) [DRSC17086], what does the deposit list?
raw ATP luminescence, replicate 1: 70450; raw ATP luminescence, replicate 2: 64050; Call: inactive

With Fmo-1 (Flavin-containing monooxygenase 1) [DRSC04328], how do the results read?
raw ATP luminescence, replicate 1: 70550; raw ATP luminescence, replicate 2: 58440; Call: inactive

For CG14744 [DRSC06480], how do the results read?
raw ATP luminescence, replicate 1: 43857; raw ATP luminescence, replicate 2: 93203; Call: inactive

What is on record for CG7582 [DRSC16261]?
raw ATP luminescence, replicate 1: 49880; raw ATP luminescence, replicate 2: 37680; Call: inactive

What did the screen give for BG642163 [DRSC00342]?
raw ATP luminescence, replicate 1: 33223; raw ATP luminescence, replicate 2: 31510; Call: inactive

Which result is listed for BG642163 [DRSC00343]?
raw ATP luminescence, replicate 1: 25390; raw ATP luminescence, replicate 2: 37600; Call: inactive
